These are yes or no findings as the source states them, for the method shown. For some of these results: Binding seen in cells or lysates may run through a third protein. Some binding calls cover weakened binding; strength is not graded here. For some of these results: Where a sequence is shown, tags or fusion partners need not be part of it. Values belong to the substance of their own block, whether it stands above or below them.
Legend:
[1] = target: T1, CHMP7 (endogenous) (human (endogenous in iPSC derived neurons and postmortem cortex)) (UniProt Q8WUX9); experiment: proximity ligation; Duolink PLA on formalin fixed paraffin embedded postmortem human motor and occipital cortex (layer V), control and sALS cases; nuclear PLA spots counted
T1 sequence: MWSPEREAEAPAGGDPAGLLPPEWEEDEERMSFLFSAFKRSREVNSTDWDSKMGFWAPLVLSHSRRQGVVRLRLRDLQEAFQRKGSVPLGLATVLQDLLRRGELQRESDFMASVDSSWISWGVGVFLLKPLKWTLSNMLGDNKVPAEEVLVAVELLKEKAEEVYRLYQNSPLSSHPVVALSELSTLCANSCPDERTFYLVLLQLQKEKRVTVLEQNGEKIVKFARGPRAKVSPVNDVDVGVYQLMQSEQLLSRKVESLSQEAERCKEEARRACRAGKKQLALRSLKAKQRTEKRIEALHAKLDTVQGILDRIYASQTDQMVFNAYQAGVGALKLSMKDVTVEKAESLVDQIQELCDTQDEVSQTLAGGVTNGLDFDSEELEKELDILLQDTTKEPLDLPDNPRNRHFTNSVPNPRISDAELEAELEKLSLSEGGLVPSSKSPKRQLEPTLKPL

Chains of the proteins cited; added tags and fusions are not shown.
UniProt Q9UQN3: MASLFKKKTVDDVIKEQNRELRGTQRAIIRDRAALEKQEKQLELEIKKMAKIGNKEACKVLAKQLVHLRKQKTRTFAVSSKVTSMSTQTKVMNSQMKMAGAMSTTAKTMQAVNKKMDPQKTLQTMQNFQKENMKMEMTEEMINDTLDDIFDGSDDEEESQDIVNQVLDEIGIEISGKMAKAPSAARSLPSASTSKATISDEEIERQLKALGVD

[2] = target: T1, CHMP7 (endogenous) (human (endogenous in iPSC derived neurons and postmortem cortex)); experiment: proximity ligation; Duolink PLA on fixed, permeabilised control and sALS iPSC derived neurons with primary antibodies against CHMP2B and CHMP7; nuclear PLA spots counted at day 18, 25 and 32 of differentiation
CHMP7 His = target: T2, CHMP7 His (UniProt Q8WUX9); experiment: pull-down; 2 µg of each recombinant protein (1:1) in 50 µL binding buffer (50 mM Tris pH 7.4, 150 mM NaCl, 2 mM MgCl2, 2 mM CaCl2, 10% glycerol, 0.5% NP-40, 1 mM DTT), 2 h at 4 °C, then magnetic GST or His beads 1 h at 4 °C; bound fraction on SDS-PAGE, SimplyBlue stain; both purified
T2 sequence: T1 sequence

CHMP7 GST = target: T3, CHMP7 GST (UniProt Q8WUX9); experiment: as above
T3 sequence: T1 sequence

binding [1]: binds
binding [2]: binds
Substance: CHMP2B (endogenous) (from UniProt Q9UQN3 1-213)

binding (CHMP7 His): binds
Substance: CHMP2B GST (from UniProt Q9UQN3 1-213)

binding (CHMP7 GST): binds
Substance: CHMP2B His (from UniProt Q9UQN3 1-213)

Source: PMC11662732
